Laboratory results taken from patent publication US10017523B2, “NAMPT inhibitors and methods” (Genzyme Corporation, priority 2014, dated 2018).
The structures given here were assigned with low confidence; some may be wrong.

Amino acid sequences for entries named in this document (tags omitted).
UniProt P43490, whole entry: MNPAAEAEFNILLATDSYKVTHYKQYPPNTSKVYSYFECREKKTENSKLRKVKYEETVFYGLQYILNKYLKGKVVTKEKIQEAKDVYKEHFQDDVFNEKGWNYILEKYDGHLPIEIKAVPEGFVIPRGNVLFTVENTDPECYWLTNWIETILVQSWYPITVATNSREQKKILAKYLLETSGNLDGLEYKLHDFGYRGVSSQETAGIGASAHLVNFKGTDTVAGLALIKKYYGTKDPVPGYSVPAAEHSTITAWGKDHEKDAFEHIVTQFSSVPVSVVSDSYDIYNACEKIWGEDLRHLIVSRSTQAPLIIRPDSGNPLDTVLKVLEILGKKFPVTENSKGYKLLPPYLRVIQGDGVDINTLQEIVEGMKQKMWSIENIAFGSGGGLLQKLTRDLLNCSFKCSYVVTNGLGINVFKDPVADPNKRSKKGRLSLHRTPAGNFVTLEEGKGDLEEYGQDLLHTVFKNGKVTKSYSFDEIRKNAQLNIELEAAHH

Legend:
[1] = tested on: acute T-cell leukemia (JURKAT); assay: Anti-proliferative activity on JURKAT cell line; details: read-out: Anti-Proliferative Activity JURKAT; 72 hours, CellTiterGlo
Method: (§1) Leukemia/Lymphoma cell lines (ATCC) were diluted in vendor-recommended media and incubated in the absence or presence of inhibitor for 72 hours at 37° C./5% CO2 prior to viability determination using CellTiterGlo (Promega) per manufacturer's instruction. The human cell lines studied include acute T-cell leukemia (JURKAT), chronic myelogenous leukemia (K562), and B-cell acute lymphocytic leukemia (NALM6 and SUP-B15).

primary human B cells = assay: Anti-proliferative activity on B cells (anti-IgM stimulated, CellTiterGlo); details: read-out: B CELL IC50; anti-IgM 10 ug/ml, 72 hours
Method: (§2) Fresh primary human B cells obtained from Analytical Biological Services (Wilmington, Del.) were diluted to 1×10^^6 cells per ml in AIM-V medium (Invitrogen), and stimulated with anti-IgM (10 ug/ml) (KPL) in the absence or presence of inhibitor for 72 hours at 37° C./5% CO2 prior to viability determination using CellTiterGlo (Promega) per manufacturer's instruction.
(§3) The 50% inhibitory concentration (IC50) is the concentration at which 50% of the maximal activity was inhibited.

[2] = tested on: chronic myelogenous leukemia (K562); assay: Anti-proliferative activity on K562 cell line; details: read-out: Anti-Proliferative Activity K562; 72 hours, CellTiterGlo
Method: as §1

[3] = tested on: B-cell acute lymphocytic leukemia (SUP-B15); assay: Anti-proliferative activity on SUP-B15 cell line; details: read-out: Anti-Proliferative Activity SUP-B15; 72 hours, CellTiterGlo
Method: as §1

primary human T cells = assay: Anti-proliferative activity on T cells (CD3/CD28 stimulated, CellTiterGlo); details: read-out: T CELL IC50; CD3/CD28 beads, 72 hours
Method: as §2, with “human T” for “human B”, “with CD3/CD28 beads (Invitrogen)” for “with anti-IgM (10 ug/ml) (KPL)”
as §3

[4] = tested on: B-cell acute lymphocytic leukemia (NALM6); assay: Anti-proliferative activity on NALM6 cell line; details: read-out: Anti-Proliferative Activity NALM6; 72 hours, CellTiterGlo
Method: as §1

Recombinant NAMPT enzyme = Recombinant NAMPT enzyme (Homo sapiens, UniProt P43490); assay: Inhibition of NAMPT enzymatic activity; details: read-out: NAMPT IC50; 6 hours at 37° C., NMN product detected
Method: Recombinant NAMPT enzyme (MBL) was briefly pre-incubated in the absence or presence of inhibitor followed by addition of nicotinamide. Enzymatic reaction was allowed to proceed for 6 hours at 37° C. Reaction was terminated and NMN reaction product detected using the method as described in: Zhang R Y, Qin Y, Lv X Q, Wang P, Xu T Y, Zhang L, Miao C Y., Anal. Biochem. 2011 May 1; 412(1):18-25.
as §3

| SMILES | IC50 [1] | IC50 (primary human B cells) | IC50 [2] | IC50 [3] | IC50 (primary human T cells) | IC50 [4] | IC50 (Recombinant NAMPT enzyme) |
| --- | --- | --- | --- | --- | --- | --- | --- |
| Cc1cc(CNC(=O)c2ccc(-c3ccc4c(c3)C(=O)NC3(CCN(C(C)C)CC3)O4)cc2)on1 | 42.1 nM | 33.4 nM | 350 nM | 4.11 nM | 5680 nM | 23.6 nM | 4 nM |
| Cc1cc(CNC(=O)c2ccc(-c3ccc4c(c3)C(=O)N(C)C3(CCN(C(C)C)CC3)O4)nc2)on1 | 16.6 nM | 9.5 nM | 47.6 nM | 1.51 nM | 1180 nM | 6.14 nM | 2 nM |
| CC(C)CCN1CCC2(CC1)CC(=O)c1nc(-c3ccc(C(=O)NCc4cncc(F)c4)cc3)ccc1O2 | 203 nM | 107 nM | 822 nM | 12.9 nM | 9670 nM | 174 nM | 127 nM |
